# Source: the supplement of paper PMC3334620
# The full ranking holds about 33,000 sequences; the median of “E-score (-0.5 to 0.5)” is about -8e-05, and the highest 2% start at about 0.23. This is one part of the list.
# Target: T1, Nrg2 (UniProt P38082)
# T1 sequence: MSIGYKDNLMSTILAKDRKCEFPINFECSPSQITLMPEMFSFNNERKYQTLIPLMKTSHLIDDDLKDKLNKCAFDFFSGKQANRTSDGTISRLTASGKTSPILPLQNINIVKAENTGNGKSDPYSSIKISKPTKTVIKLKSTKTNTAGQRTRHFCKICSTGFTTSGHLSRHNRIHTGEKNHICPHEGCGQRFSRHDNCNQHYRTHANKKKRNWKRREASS
# Assay: PBM E-score (8-mer binding enrichment) (E-score (-0.5 to 0.5)); higher = stronger / more preferred TF binding
# Conditions: protein concentration: 100 nM; construct: GST-full length
# How it was run: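 Bound GST-tagged yeast transcription factors, applied at about 100-200 nM to double-stranded universal all-10-mer Agilent arrays, were detected with fluorescent anti-GST. Scans were normalised with masliner. A modified Wilcoxon-Mann-Whitney statistic, the E-score, was assigned to each ungapped eight-base word pooled with its reverse complement by the Universal PBM Analysis Suite.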
row,Sequence,PBM E-score
1,AGTTGAAG,-0.0018
2,GGTTACTA,-0.0731
3,AACACATC,-0.0582
4,AGAGCGCT,0.0785
5,ATCCGACG,0.138
6,CCTTTAAA,-0.0552
7,ACGTAAAA,0.0312
8,GCGACGAA,0.0789
9,AAGCAATG,0.171
10,TAAGGCTA,0.00969
11,AAGAGATT,0.00595
12,ACCTTACA,-0.133
13,CCGCACGC,-0.0769
14,ATAGTGCC,-0.0203
15,GGAGATAA,-0.0475
16,CCCTTGTC,0.0459
17,CGGCCAAG,-0.0413
18,GGGTAGAC,-0.106
19,CTAGTCAA,-0.0441
20,ACCATGAT,-0.0731
21,TTGGCAAA,0.132
22,TAATGGCA,0.0836
23,CTCTTGCA,0.00461
24,ACCTTGAC,-0.0126
25,ACATCCTC,-0.0204

row,Sequence,PBM E-score
1,ATCTCACC,-0.0204
2,CGCTCGCC,0.00185
3,AGTCTCCA,-0.234
4,CTCCGCGA,0.115
5,GGTGTGTA,-0.0167
6,CTGTATTC,0.0269
7,GCTCAAGA,-0.177
8,CCATTGCC,0.0289
9,CCGAATCC,0.177
10,CCGATGAG,-0.0295
11,ACGCTAAT,-0.0638
12,ATCTCAAT,0.0327
13,ACAGTGCT,0.0642
14,CAGGACGG,-0.166
15,CTCCTTAA,-0.0313
16,GGCTGGAC,-0.233
17,AGTCACTG,-0.0745
18,ATTTAAAC,0.128
19,ATATGTCG,-0.00144
20,ACGAACTC,0.0595
21,GGTGGTGA,0.0143
22,CGTGTTCA,-0.0605
23,AATATACA,0.0984
24,TAACCTTA,-0.0909
25,ATGTCCCC,0.116

# Seven records drawn at random from those above:
row,Sequence,PBM E-score
13,CCGCACGC,-0.0769
11,AAGAGATT,0.00595
18,ATTTAAAC,0.128
14,CAGGACGG,-0.166
25,ACATCCTC,-0.0204
1,ATCTCACC,-0.0204
18,GGGTAGAC,-0.106

# (list continues)

row,Sequence,PBM E-score
1,AGTCCCCC,-0.341
2,AGAAGAAT,-0.147
3,CACTCACC,-0.0529
4,AAGGCTCT,-0.154
5,ATTACTTC,-0.152
6,CCTTTGGA,-0.0627
7,CTCTTAAA,0.0988
8,CCTAATCA,0.219
9,AGATCCCC,0.00146
10,AGGATAGA,-0.00758
11,CTTATATC,0.155
12,AGCCCATG,0.0226
13,AGTCTCGG,-0.0965
14,ATGGCATA,0.175
15,CGACTATA,0.0549
16,ACACACGA,0.0725
17,AGCCCTAA,-0.156
18,CTATCCAC,0.0342
19,ACTGGATC,0.0174
20,CAGATCAG,0.194
21,CGCCACTC,0.0149
22,ATACTGCA,0.0914
23,AAAGCGCC,0.0742
24,AGATAATA,0.218
25,AAATGAAT,0.0707

row,Sequence,PBM E-score
1,CGTTCCTA,-0.0887
2,AAACGTGG,-0.209
3,AGAGAAAT,0.0887
4,GAGGTGCA,0.0493
5,ACGACTAC,-0.143
6,GCTGTGAC,-0.108
7,ATCCTCCA,-0.0483
8,TCTGTTCA,0.0444
9,CTATAGGA,-0.0776
10,ACACCCCA,-0.0209
11,CAACAGTG,0.0298
12,CTACTACA,0.156
13,GAATTATA,0.0673
14,CGATTGAG,0.0149
15,ACTATGAG,-0.0885
16,GGAAGAAC,0.0612
17,AATGTCGA,0.2
18,AGGAGTCA,-0.0173
19,CGACGACA,-0.0583
20,CGTTCGAG,0.062
21,ACCACGGC,-0.205
22,CAATTGTC,0.129
23,ACACTACG,0.0467
24,ATCTCGGA,0.0651
25,GCATTGTA,-0.0343

row,Sequence,PBM E-score
1,GACTTATA,0.0597
2,AGTGTCGA,-0.0688
3,TTCATAAA,0.0298
4,GGCGACGA,-0.0822
5,CGGGCTTC,-0.163
6,ACAGGAAC,0.0795
7,AAATGCGA,0.0934
8,ACGTGGCA,-0.182
9,ACCCACGG,-0.162
10,AGGTTGTA,0.113
11,CCGCCTCG,0.0861
12,CACAGAAG,-0.00398
13,ACGATATA,-0.0452
14,CCTCCAAC,0.12
15,TCATCCGA,0.135
16,CCGACGCG,-0.0534
17,TAGCAGCA,-0.0727
18,ATATAAGC,0.132
19,TAATGGGA,0.00808
20,ACATGCTC,0.00619
21,CCGTGCCA,-0.0925
22,GGCAAAAC,0.00304
23,CACGAAAC,0.0169
24,GCAATACC,0.176
25,GCGACCTA,0.104

row,Sequence,PBM E-score
1,AGGACAAC,0.0578
2,GCTGGTGA,0.0829
3,CCTAAGCG,-0.0608
4,GAAATTTA,0.0953
5,ATAAAAGG,-0.128
6,GGAAAGAC,-0.148
7,TCTATTAA,0.0135
8,AGTCCAAG,-0.0885
9,CGCAATAA,0.211
10,CATAACGA,0.157
11,TAGTGCAA,0.16
12,CTTGCGGA,-0.0647
13,ATGTGTGC,-0.0286
14,ACGTAACA,-0.0832
15,ATCTAAGA,-0.0394
16,ACGGCCGT,0.199
17,AAGGGAAC,0.0244
18,GGACCGAA,0.132
19,ATGACAGA,0.0824
20,ATTACAGG,0.312
21,ACATATAA,0.211
22,AACTACGT,-0.0603
23,GTTAGCCA,-0.00235
24,GCCGGCAC,0.118
25,GGATGCAC,-0.0861

row,Sequence,PBM E-score
1,ATTCGAAA,0.203
2,AGTTGGTC,0.0852
3,GGGGCCAC,-0.0958
4,CAACAGCG,-0.148
5,CGGAGGAG,-0.291
6,ACGCTCGG,0.0526
7,AACGCCCT,-0.0707
8,CTTAAGTC,-0.0597
9,GAGGGACC,0.0355
10,CAAATCGC,-0.053
11,AAAACGAT,0.106
12,CAAGGAGA,-0.19
13,ATTATACA,-0.00719
14,AGCGACAT,0.0214
15,CCGAACCG,-0.0765
16,ACCTTTAC,-0.0214
17,GGCGGTGA,-0.102
18,GCAGTCGA,-0.0311
19,ACGGCTAA,0.184
20,TATCAACA,0.0479
21,CGCGCCCA,0.129
22,TAACTTAA,0.175

# Reformatted: results already given
row	Sequence	PBM E-score
1	ATTCGAAA	0.203
4	CAACAGCG	-0.148

# Rewritten with tabs: part of the list above
row	Sequence	PBM E-score
3	GGGGCCAC	-0.0958
4	CAACAGCG	-0.148
